# PubChem BioAssay AID1347426 (Functional Genomics Laboratory (NCATS/FGL), 2020)
# The campaign covered roughly 31,000 sequences. About 1,400 (4.5%) were called active.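 Rule for the calls: active = median seed-adjusted z-score above 1 or below -1; inactive = the rest.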 The list shows a part of the results.
# Assay: Novel Modifiers of Survival Motor Neuron (SMN) Protein: Gene Identification via Genome-wide siRNA Screen;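 note: luminescence tracks full-length SMN protein made from the SMN2 reporter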
# Conditions: HEK293T SMN2-luciferase reporter, siRNA knockdown, 72 h; actives lie on both sides
# Procedure, shortened: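 Each of three siRNAs per gene is reverse-transfected (1 pmol) into reporter HEK293T cells whose luciferase output tracks SMN protein level. After 72 h culture, ONE-Glo luminescence is control-normalized, log10-transformed and MAD-standardized; Common Seed Analysis deprioritizes seed-driven hits.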
row,Sequence,median seed-adjusted z-score
1,GACUUUUACAAGGAUGGGATT against PTGIS,inactive: 0
2,GGCUACCUUUCAUCAAAGATT against EIF3B,inactive: -0.71
3,GCAAAGACCAUAAGAUUUATT against MYST1,inactive: 0
4,GCACGUACUUGAUUCAGCATT against ZNF34,inactive: 0.0391
5,GCUUCAAUCAAAAUUCGAATT against VCL,inactive: 0
6,CACCUGUUCGUGUCCUUCATT against SCTR,inactive: -0.352
7,GCAUUGGACUGAUCCAGCATT against ZNF643,inactive: -0.0134
8,ACAUCCGCAUGAUCCAUAATT against WDTC1,inactive: -0.412
9,GGUCUAGCCUUGAUCAGAATT against SHROOM3,inactive: 0.779
10,GGUGCAACAUCUAGAUUCATT against ABCG5,inactive: 0.739
11,ACAGCAUUGUCAUUAGACATT against UBR5,inactive: 0.114
12,GCUGGAUAGUAGCAGACGATT against LY75,inactive: -0.0919
13,GAAUUAUGGAUGACGAUAATT against CAPSL,inactive: -0.168
14,GGCUGAAGAGGUCGAUGUATT against MAP1B,inactive: 0.139
15,GGACCAGUGCAGCAAAUCATT against ALDH1A1,inactive: -0.355
16,CGUCUAUGAUGUGACCAAUTT against RABL4,inactive: -0.154
17,ACCAGUAUUUCAACCAUCATT against CITED2,inactive: -0.0248
18,GGCACAACAUUUCCCUAAATT against TBK1,inactive: 0.0578
19,GCUACUAUGCUGUCCUGUATT against GPR161,inactive: -0.138
20,CUACCGGGCUGACCUCAAATT against GPR153,active: -1.08
21,GACCGAGAAGUACCGCUGATT against HBZ,inactive: -0.0054
22,CCAGCGAUGAAGUAGCAAATT against ZAN,inactive: 0.736
23,GAAACAAGCCCUUUAAGUUTT against FKBP1A,inactive: 0.113

# Rewritten as tab-separated lines: entries from further up.
row	Sequence	median seed-adjusted z-score
15	GGACCAGUGCAGCAAAUCATT against ALDH1A1	inactive: -0.355
16	CGUCUAUGAUGUGACCAAUTT against RABL4	inactive: -0.154
17	ACCAGUAUUUCAACCAUCATT against CITED2	inactive: -0.0248

# (next part)

row,Sequence,median seed-adjusted z-score
1,CAAGCAUAUUAAUGAGGUUTT against DYRK1A,active: -1.3
2,CUUGUGCCCUGGACAUUAATT against GLG1,inactive: 0.308
3,GCAUACUGGAAGGUAGUUATT against MMP21,inactive: -0.185
4,AGAUGUACGGCCGAAAUGATT against TEAD3,inactive: 0
5,GAACUAGGAUUUCAUAGCATT against LGR5,inactive: 0
6,CCACCAAACGGCACACUUUTT against LINGO4,inactive: 0.388
7,CCCUCUUGCUGAUAGUGCATT against SEMA4A,inactive: 0.0377
8,AGGUGUUUUUAAGCUAGAATT against UBE2T,inactive: -0.0157
9,GCAUAUGGACUAACAGACATT against FDX1,inactive: -0.0549
10,GCAUUAGUCUGGGCAUUGATT against SLC16A6,inactive: 0.195
11,CAUUGUCAUUUACAACUGATT against TMPRSS11E,inactive: 0.0512
12,CCACCAGGCAAUAACCACATT against DIRAS1,inactive: -0.751
13,GGAUUCCACGAACAAUAGATT against MCM8,inactive: 0.279
14,GCCUUGGACUUUCUGCAUATT against MKNK2,inactive: 0.281
15,UACAUGAACUGGUUCAUCATT against SPNS3,inactive: -0.00533
16,CGCAUGUCAGUCUCUCGAATT against SYT14L,inactive: 0.2
17,GUCUCAAGCUCAACACGGATT against EPHA8,inactive: 0.217
18,CGACUAUUCCAGCACAAGATT against QARS,inactive: -0.411
19,UGAAGUCUGUCGCUAUAAATT against TAP2,inactive: -0.768
20,AGGUCAGGAUUGACAAUGATT against RIT2,inactive: 0.253
21,CUAUCAGUACAUUACGGUATT against KIF3A,inactive: 0.119
22,GAAGGACCCAGAUCUCUUUTT against ADCK1,inactive: -0.177
23,GGUCUGGAUCGAUUCACUUTT against CACNG6,inactive: -0.0499

# A run of entries from the list above:
row,Sequence,median seed-adjusted z-score
2,CUUGUGCCCUGGACAUUAATT against GLG1,inactive: 0.308
3,GCAUACUGGAAGGUAGUUATT against MMP21,inactive: -0.185

# (listing goes on)

row,Sequence,median seed-adjusted z-score
1,GCAACUCCUUAUCUAGAUATT against PPIL6,inactive: -0.215
2,GAACUAGCACGCAUCAAGATT against PPM1G,inactive: 0.073
3,GAACGAGCUGGAUCCAUUATT against ARSF,inactive: 0.111
4,GGAGCAGUAUCAAACUCUATT against PCGF6,inactive: 0.536
5,CCCUUCUGGUUGGACGAUATT against TRIB1,inactive: 0
6,GGUACCUACUCAGAACCUATT against AKR1D1,inactive: 0.211
7,GCACAUGACAAUGGACCAATT against VKORC1,inactive: -0.754
8,CAAUGUCCCAAGAUAAAGATT against PRPSAP1,inactive: 0.224
9,UUUCCAAACAAGUACCUAATT against CKS2,inactive: 0.0907
10,GACCUGUCACAGAACCAGATT against VASN,inactive: 0.213
11,GCAGUAUCGAGCUUCCGAATT against ACAD10,inactive: -0.269
12,GAGAGCACCUUAUAAGACATT against IARS2,inactive: -0.404
13,GCAUUCGGGUGGUUGAUAATT against RAPGEF1,inactive: 0.304
14,GAAGGAACGCGAACCCGUATT against SARM1,inactive: 0.343
15,GGCACAUCAAGAUCGCUGATT against CAMKK2,inactive: -0.121
16,CCUCGGUGCUUACAACAGATT against SLC22A4,inactive: -0.474
17,CCUGAUUGUUGGGAACCGATT against KLHL1,inactive: 0.067
18,GCCUACCAGAACCCACAGATT against TBX6,inactive: 0.144
19,GAAAUCGACGUGGUAAUUATT against DERA,inactive: -0.197
20,GAAACGAGGAGUACAAUAATT against ORM1,inactive: 0.206
21,GCCUAUAUUCCAUCAGUUUTT against PTPLB,inactive: 0.0451
22,GAGUUAUACGAUCCAUGUATT against TXNL4A,inactive: -0.42
23,CUCCAUUCCUGGUAUAGAATT against XRCC5,active: -1.11
